PubChem BioAssay AID652272 | Drosophila RNAi Screening Center | 2013

Test: 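Genes whose knock-down decreases or increases Hedgehog reporter output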 (primary screen)
Cells: Drosophila clone 8 (Cl8) cells
Reagents: long dsRNA against Drosophila genes
Measurement: 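Plate reader light from a firefly reporter under a ptc promoter fragment that responds to Hedgehog, with Renilla light as transfection reference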
Scale: firefly Hh reporter signal: higher = more ptc reporter light; Renilla reference signal: higher = more Renilla control light
Rule for the call: 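Hit when the z-score averaged over two replicates is under -2 or over +3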
Calls: active = hit: reporter lowered or raised; inactive = not a hit
The deposit covers about 21,000 reagents; this is a random part of those that have a named target and a result. Of all reagents, 503 (2.4%) were called active. 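Raw plate light values, not normalised; calls rest on replicate z-scores that were not deposited; hits include reporter decreases as well as increases.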 Unmarked entries are inactive. The numbers tell different reagents against one gene apart. Not stated in the record: the amount of reagent, the time to read-out.

| predicted target | dsRNA no. | firefly Hh reporter signal, replicate 1 | firefly Hh reporter signal, replicate 2 | firefly Hh reporter signal, replicate 3 | Renilla reference signal, replicate 1 | Renilla reference signal, replicate 2 |
| --- | --- | --- | --- | --- | --- | --- |
| CG42814 | 1 | 80465 | 83677 | – | 2636 | 1965 |
| Vps50 | 1 | 1.06e5 | 95030 | – | 4737 | 3608 |
| 18w | 1 | 72144 | 66827 | – | 3143 | 2715 |
| CG2528 | 1 | 95238 | 57011 | – | 2491 | 5360 |
| CG13949 | 1 | 1.65e5 | 1.10e5 | – | 3974 | 2353 |
| CG18735 | 1 | 79835 | 63396 | – | 2461 | 6672 |
| CG42514 | 1 | 66972 | 56228 | – | 2967 | 2217 |
| Sfxn1-3 | 1 | 1.23e5 | 1.29e5 | – | 4224 | 7153 |
| pck | 1 | 85115 | 74621 | – | 1690 | 1964 |
| BtbVII | 1 | 52376 | 20739 | – | 1271 | 106 |
| BtbVII | 2 | 1.42e5 | 1.14e5 | – | 5067 | 4528 |
| Obp56h | 1 | 1.17e5 | 43395 | – | 3173 | 3921 |
| CG16953 | 1 | 1.16e5 | 97485 | – | 4851 | 3195 |
| kairos | 1 | 1.17e5 | 83415 | – | 2549 | 2154 |
| CG13398 | 1 | 97336 | 49136 | – | 2370 | 4913 |
| side-V | 1 | 1.49e5 | 4.87e5 | 72873 | 3842 | 3081 |
| side-V | 2 | 6.17e5 | 83672 | – | 3910 | 3910 |
| ng4 | 1 | 1.19e5 | 3.22e5 | – | 4230 | 10968 |
| GILT3 | 1 | 4.23e5 | 93349 | – | 22022 | 2550 |
| CG9119 | 1 | 94183 | 82816 | – | 4265 | 3370 |
| tau | 1 | 1.18e5 | 1.01e5 | – | 2521 | 3607 |

Only “firefly Hh reporter signal, replicate 1”, for 6 of the entries above:
kairos	1.17e5
CG13398	97336
side-V #1	1.49e5
side-V #2	6.17e5
ng4	1.19e5
GILT3	4.23e5

Additional entries:
| predicted target | dsRNA no. | firefly Hh reporter signal, replicate 1 | firefly Hh reporter signal, replicate 2 | firefly Hh reporter signal, replicate 3 | Renilla reference signal, replicate 1 | Renilla reference signal, replicate 2 |
| --- | --- | --- | --- | --- | --- | --- |
| Fign | 1 | 1.08e5 | 76279 | – | 4201 | 2460 |
| ttm3 | 1 | 89997 | 70198 | – | 2485 | 6409 |
| RYBP | 1 | 74195 | 82930 | – | 3188 | 3392 |
| CG30428 | 1 | 94757 | 2.29e5 | – | 2594 | 9302 |
| CG43072 | 1 | 98651 | 1.62e5 | – | 3977 | 4809 |
| CG32225 | 1 | 1.98e5 | – | – | 3979 | – |
| CG2938 | 1 | 2.12e5 | 1.34e5 | – | 4224 | 4106 |
| Gr8a | 1 | 70492 | 1.46e5 | – | 2234 | 5709 |
| CG42807 | 1 | 77271 | 63195 | – | 1828 | 4736 |
| CG13151 | 1 | 80217 | 56688 | – | 1942 | 4108 |
| CG6380 | 1 | 1.08e5 | 67680 | – | 2640 | 5349 |
| CG12640 | 1 | 70701 | 1.53e5 | – | 2738 | 6924 |
| Mink | 1 | 75664 | 79121 | – | 2893 | 2757 |
| mod | 1 | 72887 | 73539 | – | 2137 | 2576 |
| RpS16 | 1 | 40519 (active) | 26726 | – | 1341 | 4002 |
| CG15425 | 1 | 1.27e5 | 70265 | – | 1794 | 7760 |
| Naxd | 1 | 72682 | 46073 | – | 2969 | 1555 |
| CG14546 | 1 | 5.59e5 | 86553 | – | 27831 | 6779 |
| Naa30B | 1 | 90615 | 44580 | – | 2464 | 3316 |
| DCP2 | 1 | 2.72e5 | – | – | 6544 | – |
| DCP2 | 2 | 66534 | 36128 | – | 3129 | 1699 |
| Gli | 1 | 1.14e5 | 64157 | – | 3296 | 5266 |
| Irp-1B | 1 | 79433 | 1.03e5 | – | 2805 | 2611 |
| CG10469 | 1 | 45943 | 37709 | – | 4922 | 2713 |
| Or7a | 1 | 73097 | 4.17e5 | – | 2749 | 13797 |
| CG5065 | 1 | 80288 | 45377 | – | 1957 | 3190 |
| Prosalpha7 | 1 | 37633 | 45893 | – | 3024 | 2564 |
| CG14507 | 1 | 82200 | 1.07e5 | – | 2491 | 2755 |
| Adgf-E | 1 | 86469 | 42072 | – | 2230 | 3345 |
| Kaz1-ORFB | 1 | 67621 | 49233 | – | 2130 | 3270 |
| kipf | 1 | 1.37e5 | 4.23e5 | 1.76e5 | 4599 | 3161 |
| Or23a | 1 | 1.06e5 | 68804 | – | 2560 | 1618 |
| CG32432 | 1 | 44951 (active) | 26512 | – | 2269 | 1369 |
| CG32432 | 2 | 33034 (active) | 35052 | – | 1546 | 1577 |
| CG32432 | 3 | 88872 | 1.04e5 | – | 3258 | 3108 |
| VhaAC39-1 | 1 | 1.68e5 | 1.11e5 | – | 3544 | 3495 |
